Assay results as given in PubChem BioAssay AID1671190 (National Center for Advancing Translational Sciences (NCATS), 2021).
Several values for one entry are separate records, joined by “and”; a condition that tells them apart may be missing. Equal entries are not always repeated. Screen size: about 580,000 compounds; about 6,100 (1.1%) were called active. Inconclusive means that the source gave no clear call. Such entries were picked first, then a sample of the others. Calls come from the whole dose curve; as a rule, active = well fitted inhibition curve with a large enough effect; inconclusive = small, poorly fitted or top-dose-only effect, or another doubt; inactive = no such curve, though single readings can be large or run the other way. Potencies beside an inconclusive call are fits to weak or partial responses and may not hold up.

Amino acid sequences for entries named in this document (tags omitted). A change or cut given only in a name is not applied to a line headed by its entry.
UniProt P18054: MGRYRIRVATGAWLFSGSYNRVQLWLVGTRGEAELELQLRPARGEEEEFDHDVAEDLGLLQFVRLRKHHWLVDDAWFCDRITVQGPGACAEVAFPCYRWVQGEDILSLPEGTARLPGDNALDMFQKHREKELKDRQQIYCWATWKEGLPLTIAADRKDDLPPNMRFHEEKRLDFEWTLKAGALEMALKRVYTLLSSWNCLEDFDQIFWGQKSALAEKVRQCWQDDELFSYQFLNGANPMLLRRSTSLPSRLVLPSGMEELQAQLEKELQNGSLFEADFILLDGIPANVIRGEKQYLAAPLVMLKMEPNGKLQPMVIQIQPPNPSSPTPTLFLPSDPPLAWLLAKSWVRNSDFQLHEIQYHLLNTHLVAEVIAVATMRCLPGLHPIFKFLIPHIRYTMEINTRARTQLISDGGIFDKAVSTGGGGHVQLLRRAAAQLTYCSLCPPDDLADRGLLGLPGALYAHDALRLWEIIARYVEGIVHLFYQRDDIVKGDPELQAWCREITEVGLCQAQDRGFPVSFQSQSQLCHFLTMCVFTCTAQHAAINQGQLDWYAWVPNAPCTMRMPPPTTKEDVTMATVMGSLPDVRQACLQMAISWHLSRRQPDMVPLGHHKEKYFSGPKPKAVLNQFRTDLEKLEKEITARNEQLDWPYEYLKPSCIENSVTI

Biological target: Polyunsaturated fatty acid lipoxygenase ALOX12 (Homo sapiens) (UniProt P18054)
Test: Primary qHTS assay for inhibitors of human arachidonate 12S-lipoxygenase (ALOX12): Round 2
Conditions: purified 12hLO, xylenol orange hydroperoxide absorbance; activity change, negative = inhibition: at 108 µM (top of the series) unless noted
Outline: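 Hydroperoxide product was detected by ferrous iron/xylenol orange as the 573 to 405 nm absorbance ratio. Arachidonic acid at 40 uM (final) was turned over for 30 min at room temperature by 150 nM human 12hLO, pH 7.0 Hepes buffer, after 15 min compound preincubation.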
% is set by controls: 0 for no effect and ±100 for the full control effect; potency is the fitted concentration of half-maximal effect.

Row | Structure (SMILES) | Potency | activity change, negative = inhibition
1 | COc1ccc(-c2cc(C(F)(F)F)nc(SCC(=O)N3CCOCC3)n2)cc1OC | inactive | –
2 | CNC(=O)c1ccccc1Nc1nc(Nc2ccc(N3CCOCC3)cc2OC)ncc1Cl | inconclusive: 6.11 µM [inhibitor, partial curve, poor fit] | –
3 | Cc1ccc(-c2cc(C(=O)N3CCN(C(=O)c4ccco4)CC3)c3ccccc3n2)o1 | active: 17.8 µM | –
4 | C/C(=N/NC(=O)c1ccc(C)cc1C)c1cccc2ccccc12 | inactive | –
5 | CCC(CC)C(=O)N1C[C@@H]2OCC(=O)N(Cc3ccccc3)[C@@H]2C1 | inconclusive: 126 µM [inhibitor, partial curve, poor fit] | –
6 | Cc1ccc2c(CSc3nnnn3-c3ccc(O)cc3)cc(=O)oc2c1C | inconclusive: 25.1 µM [inhibitor, single point] | –
7 | O=C(NC1CCCC1)c1cc(-c2ccccn2)nc2c(Cl)cccc12 | inconclusive: 31.6 µM [inhibitor, partial curve, poor fit] | –
8 | Cc1cc(=O)oc2cc(OCC(=O)NC(=O)NC3CCCC3)ccc12 | inconclusive: 31.6 µM [inhibitor, partial curve, poor fit] | –
9 | CC(C)(C)c1cc2nc(NCc3cccc(Cl)c3)ccn2n1 | inconclusive: 50.1 µM [inhibitor, partial curve, poor fit] | –
10 | COc1ccccc1N1N=C(c2cccs2)CC1c1ccccc1 (stereo not drawn) | inconclusive: 50.1 µM [inhibitor, partial curve, poor fit] | –
11 | O=C(C(=O)N1CCN(c2ccccc2)CC1)c1ccc2c(c1)OCO2 | inconclusive: 1.12 µM [inhibitor, full curve, poor fit] | –
12 | CC1(C(=O)Nc2cccc(OC(F)(F)F)c2)Cc2c(-c3cccc(C(F)(F)F)c3)ccnc2O1 (stereo not drawn) | inconclusive: 79.4 µM [inhibitor, partial curve, poor fit] | –
13 | CC(C)c1nc(CNC(=O)c2ccc(CC3CCCNC3)cc2)cs1 (stereo not drawn) | inconclusive: 22.4 µM [inhibitor, full curve, poor fit] | –
14 | CN1C(=O)CS(=O)(=O)C12CCNCC2 | inactive | –
15 | O=C(NCc1ccccc1)C1=NO[C@@H]2CN(Cc3ccncc3)C[C@H]12 | inactive | –
16 | CC(C)C[C@@H]1COc2cccc(N3CCCCC3)c2S(=O)(=O)N1 | inconclusive: 50.1 µM [inhibitor, partial curve, poor fit] | –
17 | Cc1cc(C(=O)N[C@@H]2C[C@H](Cn3cc(CN(C)C)nn3)[C@@H](O)[C@H]2O)c(C)o1 | inconclusive: 5.62 µM [inhibitor, full curve, poor fit] | –
18 | O=C(c1ccc(Br)s1)N1CCN(C/C=C/c2ccccc2)CC1 | inconclusive: 89.1 µM [inhibitor, partial curve, poor fit] | –
19 | CC(C)c1noc(C2CCCN(C(=O)NC3CCCCC3)CCC(=O)NCC2)n1 (stereo not drawn) | inactive | –
20 | C#CCNC(=O)C1=C[C@H](c2ccc3c(c2)OCO3)C[C@H](OCc2ccc(CO)cc2)O1 | inconclusive: 10 µM [inhibitor, full curve] | –
21 | Cc1ccccc1NC(=O)C(Cl)=C(Cl)Cl | inactive | –

Row | Structure (SMILES) | Potency | activity change, negative = inhibition
22 | COc1ccc(CCNC(=S)NC(=O)c2cccc([N+](=O)[O-])c2)cc1OC | active: 35.5 µM | –
23 | CCOC(=O)c1ccc(NC(=O)Nc2ccc3c(c2)OCCO3)cc1 | inactive | –
24 | COc1cc2oc(=O)cc(CN3CCCCC3)c2cc1Cl | inconclusive: 39.8 µM [inhibitor, partial curve, poor fit] | –
25 | NCCCNc1nc(N)c([N+](=O)[O-])c(NC2CCCCC2)n1 | inactive | –
26 | COc1ccc(N2C(=O)CN(C3CCCCC3)[C@H]3CS(=O)(=O)C[C@H]32)cc1 | active: 10 µM | –
27 | O=C(Nc1ccccc1Oc1ccccc1)c1cc([N+](=O)[O-])ccc1Cl | inconclusive: 2.24 µM [inhibitor, full curve, poor fit] | –
28 | O=C(Nc1cn[nH]c1)c1cc[n+]([O-])cc1 | – | inconclusive: -31.8% [inhibitor]
29 | COc1ccc(N2CCCCS2(=O)=O)cc1S(=O)(=O)N1CCC2(CC1)OCCO2 | inconclusive: 39.8 µM [inhibitor, single point] | –
30 | COCCN1C(=O)c2ccccc2NC1c1csc(-c2ccc(Cl)cc2)n1 (stereo not drawn) | inconclusive: 112 µM [inhibitor, single point] | –
31 | O=C1c2ccccc2S(=O)(=O)N1Cc1nc(-c2ccc(Cl)c(Cl)c2)cs1 | inconclusive: 5.62 µM [inhibitor, full curve, poor fit] | –
32 | Cc1cc(C(=O)CSc2nnc(C(C)Oc3ccc(F)cc3)o2)c(C)n1Cc1ccco1 (stereo not drawn) | inconclusive: 20 µM [inhibitor, partial curve] | –
33 | COCCn1c(SCC(=O)Nc2ccc(F)c(Cl)c2)nc2c(oc3ccccc32)c1=O | inconclusive: 112 µM [inhibitor, partial curve, poor fit] | –
34 | C/C(=N\n1c(C)nc2ccccc2c1=O)c1ccc(N)cc1 | inconclusive: 89.1 µM [inhibitor, single point] | –
35 | Cc1nc2cc(F)ccc2cc1C(=O)N1CCCC(C)CC1 (stereo not drawn) | inactive | –
36 | CN(C(=O)CSc1nc2ccccc2o1)C1CCS(=O)(=O)C1 (stereo not drawn) | inconclusive: 3.16 µM [inhibitor, full curve, poor fit] | –
37 | CSCCC(NS(=O)(=O)c1ccc(Cl)cc1)C(=O)OCC(=O)NC1CCCCC1 (stereo not drawn) | inconclusive: 25.1 µM [inhibitor, partial curve, poor fit] | –
38 | COc1cc(/C=C/c2ccc(O)cc2)cc(OC)c1 | inconclusive: 70.8 µM [inhibitor, partial curve, poor fit] and inconclusive: 141 µM [inhibitor, single point] | –
39 | Cc1ccc(C(=O)Nc2ccccc2Oc2ccccc2)cc1[N+](=O)[O-] | inconclusive: 28.2 µM [inhibitor, partial curve, poor fit] | –
40 | CSc1ccccc1NC(=O)COc1ccc2c(c1)CCC(=O)N2 | inconclusive: 79.4 µM [inhibitor, partial curve, poor fit] | –
41 | Cc1ccccc1NS(=O)(=O)c1ccc2[nH]cc(C(=O)N3CCCC3)c(=O)c2c1 | inactive | –
42 | COCCCn1c2nc3ccccc3nc2c2c(=O)n(Cc3ccc(Cl)cc3)cnc21 | inactive | –

Row | Structure (SMILES) | Potency | activity change, negative = inhibition
43 | C[C@@H](N)C1CCC(C(=O)Nc2ccncc2)CC1 (stereo partly drawn) | inconclusive: 27.3 µM [inhibitor, partial curve, poor fit] | –
44 | CCOc1ccc(NS(=O)(=O)c2ccc(C(=O)N(C)CC(=O)Nc3ccc(C)cc3)cc2)cc1 | inconclusive: 126 µM [inhibitor, partial curve, poor fit] | –
45 | Cc1cc(C)cc(C(=O)NCC(c2ccccc2)c2c[nH]c3ccccc23)c1 (stereo not drawn) | inconclusive: 44.7 µM [inhibitor, partial curve, poor fit] | –
46 | Cc1ccc(NC(=O)COc2ncnc3ccc(Br)cc23)c([N+](=O)[O-])c1 | inconclusive: 44.7 µM [inhibitor, single point] | –
47 | O=NN(CCCl)C(=O)NCCCl | inconclusive: 3.85 µM [inhibitor, partial curve, poor fit] | –
48 | CC(C)(C)NC(=O)c1ccc(COc2ccc(Cl)cc2Cl)o1 | inconclusive: 89.1 µM [inhibitor, partial curve, poor fit] | –
49 | CCCc1nc2ccccc2c(C(=O)OCC(=O)NC(=O)NC(C)(C)C)c1CC | inconclusive: 0.355 µM [inhibitor, full curve, poor fit] | –
50 | COc1ccc(C(=O)Nc2nc(OCC(F)(F)F)cnc2/C=C\c2ccccc2)c(OC)c1 | inconclusive: 56.2 µM [inhibitor, partial curve, poor fit] | –
51 | O=C(O)c1c(Cl)ccc(Cl)c1Cl | inconclusive: 50.1 µM [inhibitor, single point] | –
52 | COc1ccc(CN2CCCC(C(=O)N(C)Cc3ccccc3)C2)cc1OC (stereo not drawn) | inconclusive: 2.82 µM [inhibitor, full curve, poor fit] | –
53 | CCCCOCCCNC(=O)C[C@@H]1C[C@@]2(C(=O)OC)CCCCC=C2N(Cc2ccco2)C1=O | inconclusive: 89.1 µM [inhibitor, single point] | –
54 | C#CCOC(=O)Nc1cccn(Cc2c(Cl)cccc2Cl)c1=O | inactive | –
55 | CCOC(=O)C1CCN(C(=O)CSc2nnc(-c3ccc(C)cc3)n2N)CC1 | inconclusive: 126 µM [inhibitor, single point] | –
56 | CCN1C(=O)CCN(C(=O)NCc2ccccc2)CC12CCOCC2 | inconclusive: 1.12 µM [inhibitor, full curve, poor fit] | –
57 | COc1ccc(NC(=S)N2CCC(N(C)CC3CCCO3)CC2)cc1Cl (stereo not drawn) | inactive | –
58 | CC(=O)c1cccc(-n2c(CCC(=O)O)ccc2-c2cccs2)c1 | inconclusive: 35.5 µM [inhibitor, partial curve, poor fit] | –
59 | CCc1ccc(C(CN)c2c[nH]c3ccccc23)cc1 (stereo not drawn) | inconclusive: 100 µM [inhibitor, single point] | –
60 | CC(C)COP(=O)(c1ccc(N(C)C)cc1)C(Nc1ccccc1)c1ccccc1 (stereo not drawn) | inactive | –
61 | FC(F)(F)c1cccc(CN2CCCCCC2)c1 | inconclusive: 2 µM [inhibitor, full curve, poor fit] | –
62 | C#CCOCCOCCOCCNc1nc(N2CCN(C(=O)Cn3cc(CCCCN)nn3)CC2)nc(N2CCN(C(=O)[C@H]([C@@H](C)CC)n3cc(CCCCN)nn3)CC2)n1 | inconclusive: 44.7 µM [inhibitor, partial curve, poor fit] | –
63 | CCCC(=O)N1CC(=O)Nc2ccc(Cl)cc2C1c1ccc(F)cc1 (stereo not drawn) | inconclusive: 0.355 µM [inhibitor, single point] | –

3 of these compounds, reformatted:
Row	Structure (SMILES)	Potency	activity change, negative = inhibition
23	CCOC(=O)c1ccc(NC(=O)Nc2ccc3c(c2)OCCO3)cc1	inactive	–
38	COc1cc(/C=C/c2ccc(O)cc2)cc(OC)c1	inconclusive: 70.8 µM [inhibitor, partial curve, poor fit] and inconclusive: 141 µM [inhibitor, single point]	–
48	CC(C)(C)NC(=O)c1ccc(COc2ccc(Cl)cc2Cl)o1	inconclusive: 89.1 µM [inhibitor, partial curve, poor fit]	–
